Laboratory results published in patent US20160046678A1 (ZYNGENIA, published 2016).
Results are given in words; binding and its absence hold for the method and conditions named. Some results given as binding are weak or reduced against the parent protein; the word gives no strength.

Amino acid sequences for entries named in this document (tags omitted). Residues count along the entry.
UniProt P05231, residues 30-212: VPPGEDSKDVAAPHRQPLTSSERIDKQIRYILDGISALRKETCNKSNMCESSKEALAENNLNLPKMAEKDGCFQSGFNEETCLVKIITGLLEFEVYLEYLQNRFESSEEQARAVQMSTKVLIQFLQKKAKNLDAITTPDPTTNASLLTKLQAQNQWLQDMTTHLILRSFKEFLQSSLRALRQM

B1: ILB800 (peptide)
peptide: FNEDCMWDPLLMDCAYSPGQGSATGGSAAGGSHWERCVPHSDPDYNCSFDS
B2: ILB810 (peptide)
peptide: FNEDCMWDPLLMDCAYSPGQGSATGGSGSTASAAGGSDAWGCLDDFFMKVAGCKTLF
B3: ILB817 (peptide)
peptide: FNEDCMWDPLLMDCAYSPGQGSATGGSGSTASAAGGSQGMPCQYHAMQLCPPSR
B4: ILB825 (peptide)
peptide: FNEDCMWDPLLMDCAYSPGQGSATGGSGSTASAAGGSKTLFCGYDGYDMCDLSA
B5: ILB829 (peptide)
peptide: FNEDCMWDPLLMDCAYSPGQGSATGGSAAGGSWDDTCNAEVYQQGLMCDTRVQG

target: IL6 (UniProt P05231); experiment: MRD identification, Example 48

Binder	binding
QIAFCLWDPLLMDCTVQT [ILB769]	binds
SPQECPWDPIAMKCAFVR [ILB770]	binds
TSHPCWWDPIMMSCWLEE [ILB771]	binds
VQLYCIWDPLMMDCGQRS [ILB772]	binds
CRNSCHWDPLIMDCMQEM [ILB773]	binds
FNEDCMWDPLLMDCAYSPGQGSAAGGGSIVQHQPSRMY [ILB774]	binds
FNEDCMWDPLLMDCAYSPAGGGSICQATPYSPWCR [ILB775]	binds
HRAPCFSCTACRQPCFSLT [ILB776]	binds
FNEDCMWDPLLMDCAYSPAGGSALRMCDSWVENRCLG [ILB778]	binds
FNEDCMWDPLLMDCAYSPGQGSAAGGSAQWQCHINPTGMACVDMLQG [ILB779]	binds
FNEDCMWDPLLMDCAYSPGQGSAAGGGSHPWRHNMQKI [ILB780]	binds
FNEDCMWDPLLMDCAYSPGQGSAAGGGSQFPYESPPSI [ILB781]	binds
FNEDCMWDPLLMDCAYSPAGGGSVCPTQPANCQ [ILB782]	binds
FNEDCMWDPLLMDCAYSPGQGSAAGGGSPCRFWPGRAFCH [ILB783]	binds
FNEDCMWDPLLMDCAYSPGQGSATGGSAAGGGSECELDYHMVWCK [ILB784]	binds
FNEDCMWDPLLMDCAYSPGQGSAAGGGSFWMQQAQQHK [ILB785]	binds
FNEDCMWDPLLMDCAYSPGQGSAAGGGSKCDWQPWFCP [ILB786]	binds
FNEDCMWDPLLMDCAYSPAGGGSFVGESQYMQTK [ILB787]	binds
FNEDCMWDPLLMDCAYSPGQGSATGGSGSTASAAGGGSQPWRHNMQKI [ILB788]	binds
FNEDCMWDPLLMDCAYSPGQGSATGGSGSTASAAGGGSQFPYESPPSI [ILB789]	binds

Binder	binding
FNEDCMWDPLLMDCAYSPGRGSSLGGVSPPIVSGRASA [ILB791]	binds
ANSWCHTLYWQLHHCEILE [ILB792]	binds
FNEDCMWDPLLMDCAYSPAGGGSIWQTEVIVPD [ILB793]	binds
FNEDCMWDPLLMDCAYSPGQGSATGGSGSTASAAGGGSRVRLDHWEQV [ILB794]	binds
FNEDCMWDPLLMDCAYSPGQGSATGGSAAGDGSIEHHGAWSAQ [ILB797]	binds
FNEDCMWDPLLMDCAYSPGQGSAAGGSPVLGCRNVHNTQCRLWFQG [ILB798]	binds
GLHGCQYVQMFFHFCAPKT [ILB799]	binds
B1	binds
FNEDCMWDPLLMDCAYSPAGGSGWVFRCKNMPCAKAEH [ILB801]	binds
FNEDCMWDPLLMDCAYSPGQGSAAGGGSPPHPSNSIWR [ILB802]	binds
FNEDCMWDPLLMDCAYSPGQGSATGGSAAGGSRLSLHCPEHPCGSSWTQG [ILB803]	binds
FNEDCMWDPLLMDCAYSPAGGGSPDWITWQPAW [ILB804]	binds
FQGHCALFPTDWICTLKS [ILB806]	binds
FNEDCMWDPLLMDCAYSPGQGSAAGGSVGLLCQDFAYGQTHCDVLQQG [ILB807]	binds
FNEDCMWDPLLMDCAYSPGQGSAAGDGSMCYQEPHFTYCP [ILB808]	binds
FNEDCMWDPLLMDCAYSPGQGSAAGGGSECMSSWHGCT [ILB809]	binds
B2	binds
FNEDCMWDPLLMDCAYSPGQGSAAGGSQFLLCNGSEWCPANRQG [ILB811]	binds
FNEDCMWDPLLMDCAYSPGQGSAAGGGSFCMWPFCIPPR [ILB812]	binds
FNEDCMWDPLLMDCAYSPGQGSAAGGGSMGGEDDIWHQ [ILB813]	binds

Binder	binding
PDSRCHTLYWALRYCAYQE [ILB814]	binds
FNEDCMWDPLLMDCAYSPGQGSATGGSAAGGGSWHSYTAMYAD [ILB815]	binds
FNEDCMWDPLLMDCAYSPGQGSAAGGGSGMVSHWKKVQ [ILB816]	binds
B3	binds
FNEDCMWDPLLMDCAYSPGQGSATGGSGSTASAAGGGSHQHNFQLRYT [ILB818]	binds
FNEDCMWDPLLMDCAYSPGQGSAAGGGSLCDQWQSARYCV [ILB819]	binds
FNEDCMWDPLLMDCAYSP [ILB820]	binds
FNEDCMWDPLLMDCAYSPGQGSAAGGGSYCHEDPRSLDCR [ILB821]	binds
FNEDCMWDPLLMDCAYSPGQGSAAGGGSHPWRHNMHKI [ILB822]	binds
FNEDCMWDPLLMDCAYSPGQGSAAGGSPLVDCLTYPEWVNCPRTIQG [ILB823]	binds
FNEDCMWDPLLMDCAYSPGQGSAAGGGSDCNFAPKETNCW [ILB824]	binds
B4	binds
FNEDCMWDPLLMDCAYSPGQGSAAGGGSWNRHPPPSGQ [ILB826]	binds
FNEDCMWDPLLMDCAYSPAGGGSMQYHPWQDMW [ILB827]	binds
FNEDCMWDPLLMDCAYSPGQGSAAGGGSSCNITDQMGVCL [ILB828]	binds
B5	binds
FNEDCMWDPLLMDCAYSPGQGSAAGGSARRGCVMLNECSSVSQG [ILB831]	binds
FNEDCMWDPLLMDCAYSPGQGSAAGGSRMRSVCPHHVCWRGVPQG [ILB832]	binds
